From the supplement of paper PMC3334620
Whole data set: some 33,000 sequences, median “E-score (-0.5 to 0.5)” near -0.0059, cut for the highest 2% near 0.26. The list shows a part of the results.

Target: T1, Cin5 (UniProt P40917)
T1 sequence: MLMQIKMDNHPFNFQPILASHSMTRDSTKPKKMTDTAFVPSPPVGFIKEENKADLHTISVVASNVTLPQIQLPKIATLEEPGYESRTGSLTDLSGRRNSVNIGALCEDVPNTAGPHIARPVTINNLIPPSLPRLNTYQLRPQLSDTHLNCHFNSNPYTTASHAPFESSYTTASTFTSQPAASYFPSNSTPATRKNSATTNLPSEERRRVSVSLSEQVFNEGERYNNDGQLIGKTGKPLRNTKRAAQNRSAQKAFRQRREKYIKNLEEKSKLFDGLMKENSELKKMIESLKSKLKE
Assay: PBM E-score (8-mer binding enrichment) (E-score (-0.5 to 0.5)); higher = stronger / more preferred TF binding
Details: protein concentration: 100 nM; construct: GST-full length
Experimental: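 Universal 'all 10-mer' protein binding microarrays (Agilent AMADID 015681) probed with GST-tagged S. cerevisiae TFs (full-length or DBD) made by in vitro transcription/translation (PURExpress), about 100-200 nM. Bound TF was detected with fluorescent anti-GST. Each ungapped 8-mer (which stands for itself and its reverse complement) is scored by the PBM enrichment score (E-score), a modified Wilcoxon-Mann-Whitney statistic from -0.5 to +0.5, computed with the Universal PBM Analysis Suite. Scale: above 0.35 generally sequence-specific binding.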

Sequence	PBM E-score
ATAGACGG	0.0602
AGCGAGAG	0.0419
CTACATCA	0.156
GAAAGGAA	0.0394
AGGTGATG	0.0198
TAGTATCA	0.296
GCACTGTA	0.0748
ATTGGAAC	0.00929
AATGACCT	-0.106
CCATGGAA	0.0514
GTGTGGAA	0.0155
CTCTGTTA	-0.0159
AACAGCCA	0.0811
CTCTAATA	-0.057
ACCTCGTG	-0.0248
ACTTCGCC	0.0471
ATGTCGTC	-0.00466
GGGCCTAA	-0.267
CGAGTTCA	-0.0225
AAGGATAC	-0.0927
CCACGATA	0.125
CCTTTACA	-0.136
ACGACCGG	-0.159
AAACTGAA	0.0155

Shown as labelled records: entries from further up.
GAAAGGAA
  PBM E-score: 0.0394
CTCTGTTA
  PBM E-score: -0.0159
AAACTGAA
  PBM E-score: 0.0155

More records follow:

Sequence	PBM E-score
AAGGGTTC	-0.121
ACTTATTG	0.137
ATTATGTG	0.345
AGCCGCAT	0.0301
ACATACTA	0.155
CTCTAGAC	-0.268
ATGAAAAG	0.0788
AACGCTTC	-0.0204
AACCACCA	0.0848
CTAAAGAA	-0.0282
ACCGCGGG	0.105
CATCTCGG	0.0594
ATATGACG	0.0848
ACCACAGA	0.0397
AAATCGTC	0.0262
AGAGCCAG	-0.143
CACCATTA	0.0751
ACTGCTTA	0.209
ATTGCACC	0.108
CCTTGATA	0.0439
ATATTAAT	0.362
GGCGCTTA	0.0541
ATCTAGCA	0.105
ACGACAAC	0.166

Sequence	PBM E-score
ATGTGAAC	0.117
AGCGCTTA	0.157
TAAATTAA	0.122
AAAGTAGG	0.0693
AGAGGCTG	-0.342
ACATGTAA	0.168
GCCTTGGA	-0.109
AACTCTCT	0.0206
GTTGACTA	0.00144
ACTGCCCG	-0.0979
TAGGCCCA	-0.25
CTCAAACA	0.0626
ATATCTGC	0.0204
ACGTCCCT	-0.0882
ACGATAAA	-0.115
AACAGGTG	-0.0901
CCAAATCG	-0.0283
CCTCAGAC	-0.146
GGGGTACA	-0.125
ACAATACC	0.278
ATGTTGAG	-0.0071
AACTTTGG	-0.0672
ACCACATC	0.228
GCAATTCC	-0.043

Quoted at random: 3 records from the list, in no set order.
Sequence	PBM E-score
TAGTATCA	0.296
ACCACATC	0.228
GGCGCTTA	0.0541

(further entries)

Sequence	PBM E-score
AGCAGTAC	0.037
ACCACGTC	-0.0185
CTCTCGTA	0.0396
GCACCCCC	-0.343
ACCGTGAT	-0.098
ACCGGGTG	0.00507
ACCTGACG	-0.065
TGGTCACA	-0.0718
GGGGAACC	-0.229
AGCAACCT	-0.0721
CTGACCAA	0.12
CTGCCTCA	-0.137
GATTAGCA	0.191
TCGCAACA	0.108
ATTGACCA	0.133
CGCTAATA	0.0507
GTTAAACA	0.0897
AGCCCCGC	-0.0133
AAGTGGCA	0.0598
GATGCCCC	-0.246
AAACAAGT	0.108
CTGGGGCC	-0.254
